Results deposited as PubChem BioAssay AID1259405 (NCATS, 2018)

Purpose: 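Silenced genes that increase secreted GFP made by CHO cells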 (primary screen)
Cell system: Chinese hamster CHO-K1 ovary cells with stable secreted eGFP expression
Reagent: single siRNA against mouse genes, 0.8 pmol siRNA per well (2 µl of 400 nM stock)
Duration: 3 days
Detection: 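Per-well intracellular GFP measured by laser scanning cytometry, plus viability from ATP luminescence, each relative to plate median of non-targeting control wells, in %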
Scale: GFP, % of control: higher = more GFP per well, higher productivity; viability (ATP), % of control: higher = more viable cells (more ATP)
Rule for the call: 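a knock-down is called active if GFP reaches 120% or more of non-targeting control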
The deposit covers about 50,000 reagents; this is a part drawn at random. Over the whole deposit, about 4,000 (8%) are marked active. 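Mouse siRNA library applied to hamster cells; one well for each siRNA.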 The numbers tell different reagents against one gene apart.

gene	siRNA no.	GFP, % of control	viability (ATP), % of control	call
Meaf6	1	57.4	62.3	inactive
Meaf6	2	107	107	inactive
Meaf6	3	78.2	64.6	inactive
Stmn2	1	92.9	90	inactive
Stmn2	2	125	158	active
Stmn2	3	129	107	active
Or51g2	1	89.5	82.8	inactive
Or51g2	2	86.8	82.3	inactive
Or51g2	3	66.7	89.5	inactive
Or5k1	1	71	84.6	inactive
Or5k1	2	84.9	80.1	inactive
Or5k1	3	71.4	113	inactive
Pbld2	1	58.3	62	inactive
Pbld2	2	70.9	70.2	inactive
Pbld2	3	113	123	inactive
Leng1	1	73	67	inactive
Leng1	2	55.1	32.3	inactive
Leng1	3	56.9	89.6	inactive
Uxs1	1	83.6	71.4	inactive
Uxs1	2	94.3	82.9	inactive
Tatdn2	1	79	81.9	inactive
Tatdn2	2	69.7	70.6	inactive
Tatdn2	3	99.9	68.8	inactive
Oxgr1	1	98.8	70.2	inactive
Oxgr1	2	81.5	52.9	inactive
Oxgr1	3	77.2	77.8	inactive
Raver2	1	72.9	77.9	inactive
Raver2	2	62.3	75.9	inactive
Raver2	3	95.8	58.6	inactive
Haghl	1	55.8	86.2	inactive
Haghl	2	78.6	93	inactive
Haghl	3	84.8	122	inactive
Strbp	1	75.5	75.8	inactive
Strbp	2	77.1	93.8	inactive
Strbp	3	88.9	94	inactive
Strbp	4	107	120	inactive
Strbp	5	137	137	active
Strbp	6	141	115	active
Bach2	1	82.8	63.5	inactive
Bach2	2	44.3	84.1	inactive
Bach2	3	73.3	93.2	inactive
Pex11b	1	75.4	72.1	inactive
Pex11b	2	103	59.6	inactive
Pex11b	3	60.6	66	inactive
Bbs9	1	74.8	104	inactive
Bbs9	2	73.6	53	inactive
Bbs9	3	74.1	81.8	inactive
Mlh1	1	96.9	89	inactive
Mlh1	2	97	80.2	inactive
Mlh1	3	71.1	51.6	inactive
Vmn1r225	1	41.6	57	inactive
Vmn1r225	2	85.7	83.5	inactive
Vmn1r225	3	73.2	65	inactive
Pla2g12b	1	62.4	59.7	inactive
Pla2g12b	2	49	37.5	inactive
Il20rb	1	90.7	113	inactive
Il20rb	2	51.2	51.4	inactive
Snx22	1	68.6	82.4	inactive
Snx22	2	42	29.3	inactive
Snx22	3	63.9	51.9	inactive
Lrrc8b	1	168	65.1	active
Lrrc8b	2	53.5	78.3	inactive
Lrrc8b	3	69.6	59.9	inactive
Lrrc8b	4	114	91.6	inactive
Lrrc8b	5	126	71.1	active
Lrrc8b	6	100	74	inactive
Krt6a	1	78.6	84.8	inactive
Krt6a	2	114	116	inactive
Epha1	1	70	91.8	inactive
Tmem154	1	52.2	48	inactive
Tmem154	2	21.1	15.2	inactive
Tmem154	3	66.9	86.5	inactive
Lcn2	1	100	82.3	inactive
Lcn2	2	69.6	55.3	inactive
Lcn2	3	70.7	88.7	inactive
Ptprm	1	77.1	85.5	inactive
Ptprm	2	49.4	64.7	inactive
Ptprm	3	121	90.5	active
Glce	1	46.6	58.1	inactive
Glce	2	56.5	60.7	inactive
Glce	3	101	77.3	inactive
6030452D12Rik	1	58.9	32.2	inactive
6030452D12Rik	2	69.5	90.9	inactive
6030452D12Rik	3	85.2	127	inactive
Fam131a	1	68.1	97	inactive
Fam131a	2	54.9	53	inactive
Fam131a	3	66.3	75.6	inactive
Zfp760	1	62.8	78.1	inactive
Zfp760	2	79.5	59.2	inactive
Zfp760	3	70.4	85.9	inactive
Nek9	1	63.1	73.7	inactive
Rag2	1	103	110	inactive
Rag2	2	80	86.1	inactive
Rag2	3	76.9	77.1	inactive
Cd5	1	101	74.9	inactive
Cd5	2	65.5	60.5	inactive
Cd5	3	72.5	41.4	inactive
Ppm1k	1	103	83.2	inactive
Ppm1k	2	84.2	55.2	inactive
Ppm1k	3	97.2	74.5	inactive
Xlr3c	1	134	62.4	active
Xlr3c	2	104	88.5	inactive
Xlr3c	3	83.8	102	inactive
Pate4	1	91.5	112	inactive
Pate4	2	110	119	inactive
Pate4	3	177	121	active
Mrm3	1	81.7	101	inactive
Mrm3	2	74.9	87.4	inactive
Mrm3	3	83	81.3	inactive

Individual results from above:
Under “viability (ATP), % of control”, Pate4 #3 is entered as 121
Under “viability (ATP), % of control”, 6030452D12Rik #1 has 32.2
For “viability (ATP), % of control”, Bbs9 #1 shows 104
Under “GFP, % of control”, Or5k1 #1 shows 71
Pate4 #1, GFP, % of control = 91.5
For “call”, Uxs1 #1 has inactive
